Data as given in publication doi:10.1101/2025.01.30.635804, “Emergence of specific binding and catalysis from a designed generalist binding protein” (bioRxiv, 2025).

Tested on: ABLE
Assay: Crystallographic fragment screening of ABLE crystals (PanDDA)
Type: binding
Conditions: fragment soaked (10 mM) into ABLE crystals, refined multi-state model

Compound	Refined ligand occupancy
O=C(O)C(c1ccccc1)c1ccccc1 [ZINC000000034687]	82%
O=C(O)c1cc2ccccc2o1 [ZINC000000053963]	22%
O=c1ccc2ccc(O)cc2o1 [ZINC000000058111, 7-hydroxycoumarin]	52%
Oc1ccc(-n2ccnc2)cc1 [ZINC000000066090]	38%
Cl.NCCc1c[nH]c2ccc(F)cc12 [ZINC000000077278]	36%
O=C(O)c1cc2sccc2s1 [ZINC000000107891]	34%
CCOC(=O)c1c(C)n[nH]c1C [ZINC000000109930]	82%
O=C(O)CCc1ccccc1 [ZINC000000154564]	40%
Cc1c(C(=O)O)cnn1-c1ccccc1 [ZINC000000158815]	86%
Cn1ncc(C(=O)O)c1-c1ccccc1 [ZINC000000159056]	36%
Nc1ccc2c(c1)S(=O)(=O)C=C2 [ZINC000000162015]	62%
Cc1cc(C)nc(N)n1 [ZINC000000163774]	22%
Oc1ccc2c(c1)OCO2 [ZINC000000164504]	76%
Nc1ccc(F)cc1C(=O)O [ZINC000000165667]	48%
O=C1CCc2cccc3c2N1CC3 [ZINC000000173360]	16%
COc1ccc(S(N)(=O)=O)cc1 [ZINC000000270975]	84%
O=C(O)c1ccc(Br)cc1 [ZINC000000388063]	40%
Nc1cc(F)ccc1C(=O)O [ZINC000000389796]	90%
CCc1ccc(S(N)(=O)=O)cc1 [ZINC000000403990]	62%

Compound	Refined ligand occupancy
O=C(O)Cc1c[nH]c2ccc(Br)cc12 [ZINC000000404314]	48%
Nc1ccc2oc(=O)ccc2c1 [ZINC000001612349]	42%
Cc1ccccc1S(N)(=O)=O [ZINC000002567980]	26%
NS(=O)(=O)c1ccc(F)cc1 [ZINC000002571408]	44%
O=C(c1ccncc1)c1ccc(F)cc1 [ZINC000002583439]	24%
CCCc1ccc(S(N)(=O)=O)cc1 [ZINC000002941706]	76%
O=C(O)CCc1nc2cc(Cl)ccc2s1 [ZINC000004219237]	40%
OCc1cccc2c1OCCO2 [ZINC000004271832]	72%
Nc1nc2ccc(Br)cc2s1 [ZINC000004774482]	42%
O=C1CNc2ccc(C(F)(F)F)cc2N1 [ZINC000006657973]	74%
O=c1ccc2ccccc2[nH]1 [ZINC000008579298]	42%
Nc1cccc(Oc2ccccn2)c1 [ZINC000012370416]	46%
N#CCc1c[nH]c2ccc(Cl)cc12 [ZINC000016697555]	70%
Cc1ccc2c(C(=O)O)c[nH]c2c1 [ZINC000020269197]	95%
Cc1cc(CO)c2ccccc2n1 [ZINC000037405164]	38%
O=C(O)c1cc2cc(Cl)sc2[nH]1 [ZINC000038866729]	28%
NS(=O)(=O)c1ncc[nH]1 [ZINC000039132637]	32%
FC(F)(F)c1ccc(OC2CCNCC2)nc1 [ZINC000042783023]	48%
O=C1CSc2cc(C(=O)O)ccc2N1 [ZINC000098208711]	24%
